# Reference: the supplement of paper PMC8728848
# The other results are listed elsewhere or left out.
# Assays:
# Assay in all cases: glycan array binding signal (z-score within array); higher = stronger binding
# Conditions in all cases: glycan notation: IUPAC condensed, linker removed
# [1] = biological target: GlcNAc(b1-3)Gal(b1-4)GlcNAc(b1-3)Gal(b1-4)GlcNAc(b1-2)Man(a1-3)[GlcNAc(b1-3)Gal(b1-4)GlcNAc(b1-3)Gal(b1-4)GlcNAc(b1-2)Man(a1-6)]Man(b1-4)GlcNAc(b1-4)[Fuc(a1-6)]GlcNAc
# Outline: (§1)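 Negative Z-scores can be read as non-binding. The Z-score is calculated within each array and then averaged across arrays of one protein sequence at different concentrations or buffers and across linkers. Arrays, 3228 in all, were curated from the Consortium for Functional Glycomics database and kept only where the protein sequence was available.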
# [2] = biological target: GlcNAc(b1-3)Gal(b1-4)GlcNAc(b1-3)Gal(b1-4)GlcNAc(b1-2)[GlcNAc(b1-3)Gal(b1-4)GlcNAc(b1-3)Gal(b1-4)GlcNAc(b1-6)]Man(a1-6)[GlcNAc(b1-3)Gal(b1-4)GlcNAc(b1-3)Gal(b1-4)GlcNAc(b1-2)Man(a1-3)]Man(b1-4)GlcNAc(b1-4)[Fuc(a1-6)]GlcNAc
# Outline: as §1
# [3] = biological target: GlcNAc(b1-3)Gal(b1-4)GlcNAc(b1-3)Gal(b1-4)GlcNAc(b1-3)Gal(b1-4)GlcNAc(b1-2)Man(a1-3)[GlcNAc(b1-3)Gal(b1-4)GlcNAc(b1-3)Gal(b1-4)GlcNAc(b1-3)Gal(b1-4)GlcNAc(b1-2)Man(a1-6)]Man(b1-4)GlcNAc(b1-4)GlcNAc
# Outline: as §1
# [4] = biological target: GlcNAc(b1-3)Gal(b1-4)GlcNAc(b1-3)Gal(b1-4)GlcNAc(b1-3)Gal(b1-4)GlcNAc(b1-2)Man(a1-3)[GlcNAc(b1-3)Gal(b1-4)GlcNAc(b1-3)Gal(b1-4)GlcNAc(b1-3)Gal(b1-4)GlcNAc(b1-2)Man(a1-6)]Man(b1-4)GlcNAc(b1-4)[Fuc(a1-6)]GlcNAc
# Outline: as §1
# [5] = biological target: GlcNAc(b1-3)Gal(b1-4)GlcNAc(b1-3)Gal(b1-4)GlcNAc(b1-3)Gal(b1-4)GlcNAc(b1-2)[GlcNAc(b1-3)Gal(b1-4)GlcNAc(b1-3)Gal(b1-4)GlcNAc(b1-3)Gal(b1-4)GlcNAc(b1-6)]Man(a1-6)[GlcNAc(b1-3)Gal(b1-4)GlcNAc(b1-3)Gal(b1-4)GlcNAc(b1-3)Gal(b1-4)GlcNAc(b1-2)Man(a1-3)]Man(b1-4)GlcNAc(b1-4)[Fuc(a1-6)]GlcNAc
# Outline: as §1
# [6] = biological target: GlcNAc(b1-3)Gal(b1-4)GlcNAc(b1-3)Gal(b1-4)GlcNAc(b1-3)Gal(b1-4)GlcNAc(b1-3)Gal(b1-4)GlcNAc(b1-2)Man(a1-3)[GlcNAc(b1-3)Gal(b1-4)GlcNAc(b1-3)Gal(b1-4)GlcNAc(b1-3)Gal(b1-4)GlcNAc(b1-3)Gal(b1-4)GlcNAc(b1-2)Man(a1-6)]Man(b1-4)GlcNAc(b1-4)GlcNAc
# Outline: as §1
# [7] = biological target: GlcNAc(b1-3)Gal(b1-4)GlcNAc(b1-3)Gal(b1-4)GlcNAc(b1-3)Gal(b1-4)GlcNAc(b1-3)Gal(b1-4)GlcNAc(b1-2)Man(a1-3)[GlcNAc(b1-3)Gal(b1-4)GlcNAc(b1-3)Gal(b1-4)GlcNAc(b1-3)Gal(b1-4)GlcNAc(b1-3)Gal(b1-4)GlcNAc(b1-2)Man(a1-6)]Man(b1-4)GlcNAc(b1-4)[Fuc(a1-6)]GlcNAc
# Outline: as §1
# [8] = biological target: GlcNAc(b1-3)Gal(b1-4)GlcNAc(b1-3)Gal(b1-4)GlcNAc(b1-3)Gal(b1-4)GlcNAc(b1-3)Gal(b1-4)GlcNAc(b1-2)[GlcNAc(b1-3)Gal(b1-4)GlcNAc(b1-3)Gal(b1-4)GlcNAc(b1-3)Gal(b1-4)GlcNAc(b1-3)Gal(b1-4)GlcNAc(b1-6)]Man(a1-6)[GlcNAc(b1-3)Gal(b1-4)GlcNAc(b1-3)Gal(b1-4)GlcNAc(b1-3)Gal(b1-4)GlcNAc(b1-3)Gal(b1-4)GlcNAc(b1-2)Man(a1-3)]Man(b1-4)GlcNAc(b1-4)[Fuc(a1-6)]GlcNAc
# Outline: as §1
# [9] = biological target: GlcNAc(b1-3)Gal(b1-4)GlcNAc(b1-3)Gal(b1-4)GlcNAc(b1-3)GalNAc
# Outline: as §1
# [10] = biological target: GlcNAc(b1-3)Gal(b1-4)GlcNAc(b1-3)GalNAc
# Outline: as §1
# [11] = biological target: GlcNAc(b1-3)Gal(b1-4)GlcNAc(b1-3)[GlcNAc(b1-3)Gal(b1-4)GlcNAc(b1-3)]GalNAc
# Outline: as §1
# [12] = biological target: GlcNAc(b1-3)Gal(b1-4)GlcNAc(b1-6)[Gal(b1-3)]GalNAc
# Outline: as §1
# [13] = biological target: GlcNAc(b1-3)Gal(b1-4)GlcNAc(b1-6)[GlcNAc(b1-3)Gal(b1-3)]GalNAc
# Outline: as §1
# [14] = biological target: GlcNAc(b1-3)Gal(b1-4)GlcNAc(b1-6)[GlcNAc(b1-3)]Gal(b1-4)GlcNAc
# Outline: as §1
# GlcNAc(b1-3)GalNAc = biological target: GlcNAc(b1-3)GalNAc
# Outline: as §1
# GlcNAc(b1-3)Man = biological target: GlcNAc(b1-3)Man
# Outline: as §1
# [15] = biological target: GlcNAc(b1-3)[GlcNAc(b1-4)][GlcNAc(b1-6)]GlcNAc
# Outline: as §1
# [16] = biological target: GlcNAc(b1-3)[GlcNAc(b1-6)]Gal(b1-4)GlcNAc
# Outline: as §1
# [17] = biological target: GlcNAc(b1-3)[GlcNAc(b1-6)]GalNAc
# Outline: as §1
# [18] = biological target: GlcNAc(b1-4)Gal(b1-4)GlcNAc
# Outline: as §1
# GlcNAc(b1-4)GlcNAc = biological target: GlcNAc(b1-4)GlcNAc
# Outline: as §1
# [19] = biological target: GlcNAc(b1-4)GlcNAc(b1-4)GlcNAc
# Outline: as §1
# [20] = biological target: GlcNAc(b1-4)GlcNAc(b1-4)GlcNAc(b1-4)GlcNAc(b1-4)GlcNAc
# Outline: as §1
# [21] = biological target: GlcNAc(b1-4)GlcNAc(b1-4)GlcNAc(b1-4)GlcNAc(b1-4)GlcNAc(b1-4)GlcNAc
# Outline: as §1
# [22] = biological target: GlcNAc(b1-4)[GlcNAc(b1-6)]GalNAc
# Outline: as §1
# [23] = biological target: GlcNAc(b1-6)Gal(b1-4)GlcNAc
# Outline: as §1
# GlcNAc(b1-6)GalNAc = biological target: GlcNAc(b1-6)GalNAc
# Outline: as §1
# [24] = biological target: GlcNAc6S(b1-3)Gal(b1-4)GlcNAc
# Outline: as §1
# Kdn(a2-3)Gal(b1-3)GalNAc = biological target: Kdn(a2-3)Gal(b1-3)GalNAc
# Outline: as §1
# Kdn(a2-3)Gal(b1-3)GlcNAc = biological target: Kdn(a2-3)Gal(b1-3)GlcNAc
# Outline: as §1
# Kdn(a2-3)Gal(b1-4)Glc = biological target: Kdn(a2-3)Gal(b1-4)Glc
# Outline: as §1
# Kdn(a2-3)Gal(b1-4)GlcNAc = biological target: Kdn(a2-3)Gal(b1-4)GlcNAc
# Outline: as §1
# [25] = biological target: Kdn(a2-3)Gal(b1-4)[Fuc(a1-3)]GlcNAc
# Outline: as §1
# Kdn(a2-6)Gal(b1-4)GlcNAc = biological target: Kdn(a2-6)Gal(b1-4)GlcNAc
# Outline: as §1
# [26] = biological target: Man(a1-2)Man(a1-2)Man(a1-3)Man
# Outline: as §1
# [27] = biological target: Man(a1-2)Man(a1-2)Man(a1-6)[Man(a1-3)]Man
# Outline: as §1
# Man(a1-2)Man(a1-3)Man = biological target: Man(a1-2)Man(a1-3)Man
# Outline: as §1
# [28] = biological target: Man(a1-2)Man(a1-3)[Man(a1-2)Man(a1-6)]Man
# Outline: as §1
binder,measurement,setting,value
Aap brpt (Staphylococcus epidermidis) (protein) VDGDPITSTEEIPFDKKREFDPNLAPGTEKVVQKGEPGTKTITTPTTKNPLTGEKVGEGEPTEKITKQPVDEIVHYGGEEIKTGHKDEFDPNAPKGSQTTQPGKPGVKNPDTGEVVTPPVDDVTKYGPVDGDPITSTEEIPFDKKREFDPNLAPGTEKVVQKGEPGTKTITTPTTKNPLTGEKVGEGEPTEKITKQPVDEIVHYGGEEIKPGHKDEFDPNAPKGSQEDVPGKPGVKNPDTGEVVTPPVDDVTKYGPVDGDSITSTEEIPFDKKREFDPNLAPGTEKVVQKGEPGTKTITTPTTKNPLTGEKVGEGEPTEKITKQPVDEIVHYGGEQIPQGHKDEFDPNAPVDSKTEVPGKPGVKNPDTGEVVTPPVDDVTKYGPVDGDSITSTEEIPFDKKREFDPNLAPGTEKVVQKGEPGTKTITTPTTKNPLTGEKVGEGKSTEKVTKQPVDEIVEYGPTK,glycan array binding signal (z-score),[1],2.65
same,glycan array binding signal (z-score),[2],3.02
same,glycan array binding signal (z-score),[3],1.17
same,glycan array binding signal (z-score),[4],1.61
same,glycan array binding signal (z-score),[5],0.949
same,glycan array binding signal (z-score),[6],-0.289
same,glycan array binding signal (z-score),[7],0.525
same,glycan array binding signal (z-score),[8],1.02
same,glycan array binding signal (z-score),[9],0.235
same,glycan array binding signal (z-score),[10],0.112
same,glycan array binding signal (z-score),[11],0.48
same,glycan array binding signal (z-score),[12],-1.92
same,glycan array binding signal (z-score),[13],-0.394
same,glycan array binding signal (z-score),[14],0.488
same,glycan array binding signal (z-score),GlcNAc(b1-3)GalNAc,-0.448
same,glycan array binding signal (z-score),GlcNAc(b1-3)Man,-1.25
same,glycan array binding signal (z-score),[15],-0.444
same,glycan array binding signal (z-score),[16],-0.767
same,glycan array binding signal (z-score),[17],0.538
same,glycan array binding signal (z-score),[18],0.453
same,glycan array binding signal (z-score),GlcNAc(b1-4)GlcNAc,-0.727
same,glycan array binding signal (z-score),[19],0.541
same,glycan array binding signal (z-score),[20],-1.51
same,glycan array binding signal (z-score),[21],-0.028
same,glycan array binding signal (z-score),[22],1.07
same,glycan array binding signal (z-score),[23],1.15
same,glycan array binding signal (z-score),GlcNAc(b1-6)GalNAc,0.242
same,glycan array binding signal (z-score),[24],-0.559
same,glycan array binding signal (z-score),Kdn(a2-3)Gal(b1-3)GalNAc,1.59
same,glycan array binding signal (z-score),Kdn(a2-3)Gal(b1-3)GlcNAc,-1.94
same,glycan array binding signal (z-score),Kdn(a2-3)Gal(b1-4)Glc,-0.942
same,glycan array binding signal (z-score),Kdn(a2-3)Gal(b1-4)GlcNAc,-0.501
same,glycan array binding signal (z-score),[25],0.039
same,glycan array binding signal (z-score),Kdn(a2-6)Gal(b1-4)GlcNAc,0.338
same,glycan array binding signal (z-score),[26],0.639
same,glycan array binding signal (z-score),[27],0.692
same,glycan array binding signal (z-score),Man(a1-2)Man(a1-3)Man,0.657
same,glycan array binding signal (z-score),[28],-0.923

# Some of the entries so far, bar-delimited.
binder | measurement | setting | value
Aap brpt (Staphylococcus epidermidis) (protein) VDGDPITSTEEIPFDKKREFDPNLAPGTEKVVQKGEPGTKTITTPTTKNPLTGEKVGEGEPTEKITKQPVDEIVHYGGEEIKTGHKDEFDPNAPKGSQTTQPGKPGVKNPDTGEVVTPPVDDVTKYGPVDGDPITSTEEIPFDKKREFDPNLAPGTEKVVQKGEPGTKTITTPTTKNPLTGEKVGEGEPTEKITKQPVDEIVHYGGEEIKPGHKDEFDPNAPKGSQEDVPGKPGVKNPDTGEVVTPPVDDVTKYGPVDGDSITSTEEIPFDKKREFDPNLAPGTEKVVQKGEPGTKTITTPTTKNPLTGEKVGEGEPTEKITKQPVDEIVHYGGEQIPQGHKDEFDPNAPVDSKTEVPGKPGVKNPDTGEVVTPPVDDVTKYGPVDGDSITSTEEIPFDKKREFDPNLAPGTEKVVQKGEPGTKTITTPTTKNPLTGEKVGEGKSTEKVTKQPVDEIVEYGPTK | glycan array binding signal (z-score) | [6] | -0.289
same | glycan array binding signal (z-score) | [20] | -1.51
same | glycan array binding signal (z-score) | [21] | -0.028
